From article PMC5758883
These are yes or no findings as the source states them, for the method shown. Some binding calls cover weakened binding; strength is not graded here.

Sequences of proteins named here, by UniProt entry; tags and fusion partners are left off. A line that says so, or that is headed by a name, gives the form on record, which may keep a tag or linker. Residues count along the entry.
RNase E 603–850 with a C-terminal hexahistidine tag (P21513, residues 603-850): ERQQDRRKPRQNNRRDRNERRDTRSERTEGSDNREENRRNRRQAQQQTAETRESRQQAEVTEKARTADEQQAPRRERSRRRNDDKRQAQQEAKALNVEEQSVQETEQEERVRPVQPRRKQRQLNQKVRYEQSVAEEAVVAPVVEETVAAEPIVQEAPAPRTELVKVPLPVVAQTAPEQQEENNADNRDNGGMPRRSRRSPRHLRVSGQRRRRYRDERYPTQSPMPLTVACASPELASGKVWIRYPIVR
N-terminal hexahistidine-tagged AR2-enolase binding site (EBS), residues 782–850 of RNase E (P21513, residues 782-850): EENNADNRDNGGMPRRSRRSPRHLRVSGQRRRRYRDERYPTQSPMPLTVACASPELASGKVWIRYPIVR
UniProt P0A6P9: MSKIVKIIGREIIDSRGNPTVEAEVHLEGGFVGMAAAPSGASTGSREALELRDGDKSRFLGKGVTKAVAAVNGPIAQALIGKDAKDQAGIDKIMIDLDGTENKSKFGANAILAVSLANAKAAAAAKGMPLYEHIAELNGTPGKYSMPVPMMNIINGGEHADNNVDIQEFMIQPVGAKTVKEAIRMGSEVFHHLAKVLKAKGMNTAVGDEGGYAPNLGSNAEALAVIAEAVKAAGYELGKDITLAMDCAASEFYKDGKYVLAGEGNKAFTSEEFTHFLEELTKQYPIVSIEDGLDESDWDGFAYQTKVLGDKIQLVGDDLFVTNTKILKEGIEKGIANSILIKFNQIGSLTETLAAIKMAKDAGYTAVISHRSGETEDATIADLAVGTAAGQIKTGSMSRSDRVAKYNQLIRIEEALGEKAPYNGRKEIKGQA

Assays:
[1] = target: RNase E 603–850 with a C-terminal hexahistidine tag (Escherichia coli) (UniProt P21513); test: native gel or EMSA; recognition core, Hfq and MicC equimolar at 250 nM; 50 mM Tris–HCl pH 7.5, 100 mM NaCl, 50 mM KCl, 10 mM MgCl2, 5 mM DTT, 5–10 min at 4°C; 8% native polyacrylamide gel; shifted bands excised and analysed by LC-MS/MS (emPAI); both purified
[2] = target: RNase E 603–850 with a C-terminal hexahistidine tag (Escherichia coli) (UniProt P21513); test: native MS; native ESI and ion-mobility mass spectrometry of the co-purified ternary and binary complexes; both purified
[3] = target: N-terminal hexahistidine-tagged AR2-enolase binding site (EBS), residues 782–850 of RNase E (Escherichia coli) (UniProt P21513); test: crystal structure; co-expressed, co-purified AR2–EBS/enolase complex; 0.2 M potassium thiocyanate, 0.1 M Bis-Tris propane pH 8.5, 20% PEG 3350, 18°C; 2.0 Å; both purified

Measured: binding

enolase (from UniProt P0A6P9 1-432) (enzyme)
binds: [1] | [2] | [3]
